Experimental data as given in US20070270336A1, “Method for accelerating cutaneous barrier recovery” (Shiseido Company, Ltd., priority 2006, published 2007).
“Also recorded” adds a separate entry of the source. For at least one compound, name, drawing or mass did not settle the structure.

Test system: hairless mice flank skin
Assay: Permeability barrier recovery (TEWL) after tape stripping
Assay type: in vivo, mouse
Settings: single topical application after tape stripping; each reagent 1 mM (FIG. 1 legend); 1, 3 and 6 hours; vs water control
Experimental: All experiments were performed on 7-10-week old male hairless mice (HR-1, Hoshino, Japan). All procedures for measuring of skin barrier function, disrupting the barrier and applying the sample were carried out under anesthesia. All experiments were approved by the Animal Research Committee of the Shiseido Research Center in accordance with the National Research Council Guide. 1-EBIO, diazoxide, gilbenclamide, minoxidil, dequalinium were purchased from Tocris (TOCRIS, Bristol, UK). Valinomycin was purchased from Wako (Wako Osaka, Japan).
Permeability barrier function was evaluated by measurement of transepidermal water loss (TEWL) with an electric water analyzer, as described previously (Denda, M., Sato J., Masuda Y., Kuramoto M., Elias P. M., Feingold K. R. (1998). J Invest Dermatol 111(5): 858-63). […] Two points on one side of a flank were measured and 4-8 mice were used to evaluate the effects of each treatment. […] TEWL was then measured over the same sites at 1, 3 and 6 hours after barrier disruption. The barrier recovery results are expressed as percent of recovery, because of variations from day to day in the extent of barrier disruption. In each animal, the percentage of recovery was calculated by the following formula: (TEWL immediately after barrier disruption−TEWL at indicated time point)/(TEWL immediately after barrier disruption−baseline TEWL)×100%). […]

Nc1cc(N2CCCCC2)nc(N)[n+]1[O-] [minoxidil, 6-(1-Pipendinyl)-2,4-pyrimidinediamine 3-oxide]
permeability barrier recovery after tape stripping (percent recovery of TEWL): significantly accelerated barrier repair; also recorded: accelerated barrier recovery
